The target of the experiment is cynomolgus monkey CD3 expressed on T cells (cynomolgus pan T cells/PBMC, HSC-F cell line) (cynomolgus monkey) (UniProt Q95LI5). Briefly: flow cytometry on cynomolgus T cell line HSC-F, hybridoma supernatant. Background: A flow cytometer gives signals particle by particle.

By UniProt entry, the sequences of proteins in these tests, tags left out. Residues count along the entry.
UniProt Q95LI5, residues 22-198: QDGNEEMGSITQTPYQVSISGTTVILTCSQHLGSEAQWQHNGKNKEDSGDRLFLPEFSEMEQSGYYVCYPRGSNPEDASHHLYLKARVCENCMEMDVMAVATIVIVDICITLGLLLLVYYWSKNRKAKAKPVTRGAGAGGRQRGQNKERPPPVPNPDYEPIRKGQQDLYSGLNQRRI

Experimental findings from US20210277118A1 (Daiichi Sankyo, published 2021) are described below.

Results are given in words; binding and its absence hold for the method and conditions named. Some entries that bind do so weakly or less than the wild type.

B1: rat anti-CD3 monoclonal antibody C3-147 (antibody, rat IgG2b, V domains shown)
VH: EVQLVESGGGLVQPGRALKLSCVVSGVTFNYYGMSWIRQAPGKGLEWVASITNSGGRIYYPDSVKGRFTISRENTQKTLYLQMNSLRSEDTATYYCTLDGRDGWVAYWGQGTLVTVSS
VL: QFVLTQPNSVSTNLGTTVELSCKRNTGNIGSNYVNWYQQHEGRSPTTIIYRDDKRPDGVSDRFSGSIDRSSKSALLTINNVQTEDEADYFCQSYSSGFIFGGGTKLTVL
notes: Rat IgG2b with lambda chains (printed 'X chains'); tested as hybridoma culture supernatant
Turning to B1, the binding result is listed as “binds”.
